The list is a part of this screen's results and no random one: it covers a few groups of compounds. Not every dose and run of a compound is shown. T/C is the treated group as % of the vehicle group. Some entries give survivors of the animals treated and no T/C: the source holds a T/C of zero for them, seemingly a mark for toxic or unscored doses. Some doses without a T/C left all or most animals alive at the check, yet need not have been tolerated: survival well below the control is almost never listed, so the zero probably covers shortened survival too. Counts of survivors are from the toxicity check (mostly the fifth day) where no day follows; animals may have died later. Schedules are NCI's codes, read here as Q, the interval in days (D) or hours (H), X, the number of doses. For survival time, the PubChem record calls one and a half times the control and up active, and a quarter to a half above the control has no call in these data; cut-offs in other NCI protocols can differ. Some T/C values carry the count of animals alive at the toxicity check (mostly the fifth day); without a count or a note in brackets, all were alive then.
System: P388 leukemia ip, CD2F1 mice, survival T/C
Experiment: NCI In Vivo Anticancer Drug Screen. Data for tumor model P388 Leukemia (intraperitoneal) in CD2F1 (CDF1) mice
Details: T/C endpoint: median survival time, higher T/C = longer survival

## O=NN1CCN/C1=N\[N+](=O)[O-]
dose: 4.0 mg/kg/injection, schedule: Q03HX024 (ip), vehicle: Klucel (hydroxypropylcellulose) (HPC)
  survivor count: 9 of 10
dose: 8.0 mg/kg/injection, schedule: Q03HX016 (ip), vehicle: Klucel (hydroxypropylcellulose) (HPC)
  T/C: 87 % of control [9 of 10 alive]
dose: 8.0 mg/kg/injection, schedule: Q03HX024 (ip), vehicle: Klucel (hydroxypropylcellulose) (HPC)
  T/C: 100 % of control [9 of 10 alive]
dose: 16.0 mg/kg/injection, schedule: Q03HX008 (ip), vehicle: Klucel (hydroxypropylcellulose) (HPC)
  T/C: 102 % of control
dose: 16.0 mg/kg/injection, schedule: Q03HX016 (ip), vehicle: Klucel (hydroxypropylcellulose) (HPC)
  T/C: 106 % of control
dose: 16.0 mg/kg/injection, schedule: Q03HX024 (ip), vehicle: Klucel (hydroxypropylcellulose) (HPC)
  T/C: 101 % of control [7 of 10 alive]
dose: 32.0 mg/kg/injection, schedule: Q01DX009 (ip), vehicle: Klucel (hydroxypropylcellulose) (HPC)
  T/C: 111 % of control
dose: 32.0 mg/kg/injection, schedule: Q01DX009 (sc), vehicle: Klucel (hydroxypropylcellulose) (HPC)
  T/C: 100 % of control
dose: 32.0 mg/kg/injection, schedule: Q03HX008 (ip), vehicle: Klucel (hydroxypropylcellulose) (HPC)
  T/C: 111 % of control [9 of 10 alive]
dose: 32.0 mg/kg/injection, schedule: Q03HX016 (ip), vehicle: Klucel (hydroxypropylcellulose) (HPC)
  T/C: 103 % of control [9 of 10 alive]
dose: 32.0 mg/kg/injection, schedule: Q03HX024 (ip), vehicle: Klucel (hydroxypropylcellulose) (HPC)
  T/C: 87 % of control [9 of 10 alive]
dose: 32.0 mg/kg/injection, schedule: Q04DX003 (ip), vehicle: Klucel (hydroxypropylcellulose) (HPC)
  T/C: 113 % of control
dose: 64.0 mg/kg/injection, schedule: Q01DX009 (ip), vehicle: Klucel (hydroxypropylcellulose) (HPC)
  T/C: 119 % of control
dose: 64.0 mg/kg/injection, schedule: Q01DX009 (sc), vehicle: Klucel (hydroxypropylcellulose) (HPC)
  T/C: 106 % of control
dose: 64.0 mg/kg/injection, schedule: Q03HX008 (ip), vehicle: Klucel (hydroxypropylcellulose) (HPC)
  T/C: 110 % of control [8 of 10 alive]
dose: 64.0 mg/kg/injection, schedule: Q03HX016 (ip), vehicle: Klucel (hydroxypropylcellulose) (HPC)
  survivor count: 5 of 10
dose: 64.0 mg/kg/injection, schedule: Q03HX024 (ip), vehicle: Klucel (hydroxypropylcellulose) (HPC)
  survivor count: 3 of 10
dose: 64.0 mg/kg/injection, schedule: Q04DX003 (ip), vehicle: Klucel (hydroxypropylcellulose) (HPC)
  T/C: 113 % of control
dose: 64.0 mg/kg/injection, schedule: Q08DX002 (ip), vehicle: Klucel (hydroxypropylcellulose) (HPC)
  T/C: 106 % of control
dose: 100.0 mg/kg/injection, schedule: Q04DX003 (ip), vehicle: Klucel (hydroxypropylcellulose) (HPC)
  T/C: 118 % of control
dose: 128.0 mg/kg/injection, schedule: Q01DX001 (ip), vehicle: Klucel (hydroxypropylcellulose) (HPC)
  T/C: 102 % of control [8 of 10 alive]
dose: 128.0 mg/kg/injection, schedule: Q01DX001 (sc), vehicle: Klucel (hydroxypropylcellulose) (HPC)
  T/C: 108 % of control [7 of 10 alive]
dose: 128.0 mg/kg/injection, schedule: Q01DX009 (ip), vehicle: Klucel (hydroxypropylcellulose) (HPC)
  T/C: 105 % of control
dose: 128.0 mg/kg/injection, schedule: Q01DX009 (oral), vehicle: Klucel (hydroxypropylcellulose) (HPC)
  T/C: 99 % of control
dose: 128.0 mg/kg/injection, schedule: Q01DX009 (sc), vehicle: Klucel (hydroxypropylcellulose) (HPC)
  T/C: 103 % of control
dose: 128.0 mg/kg/injection, schedule: Q03HX008 (ip), vehicle: Klucel (hydroxypropylcellulose) (HPC)
  survivor count: 0 of 10
dose: 128.0 mg/kg/injection, schedule: Q03HX016 (ip), vehicle: Klucel (hydroxypropylcellulose) (HPC)
  survivor count: 0 of 10
dose: 128.0 mg/kg/injection, schedule: Q04DX003 (ip), vehicle: Klucel (hydroxypropylcellulose) (HPC)
  T/C: 112 % of control
dose: 128.0 mg/kg/injection, schedule: Q08DX002 (ip), vehicle: Klucel (hydroxypropylcellulose) (HPC)
  T/C: 105 % of control
dose: 200.0 mg/kg/injection, schedule: Q04DX003 (ip), vehicle: Klucel (hydroxypropylcellulose) (HPC)
  T/C: 109 % of control
dose: 256.0 mg/kg/injection, schedule: Q01DX001 (ip), vehicle: Klucel (hydroxypropylcellulose) (HPC)
  T/C: 112 % of control [7 of 10 alive]
dose: 256.0 mg/kg/injection, schedule: Q01DX001 (oral), vehicle: Klucel (hydroxypropylcellulose) (HPC)
  T/C: 99 % of control
dose: 256.0 mg/kg/injection, schedule: Q01DX001 (sc), vehicle: Klucel (hydroxypropylcellulose) (HPC)
  survivor count: 6 of 10
dose: 256.0 mg/kg/injection, schedule: Q01DX009 (ip), vehicle: Klucel (hydroxypropylcellulose) (HPC)
  survivor count: 3 of 10
dose: 256.0 mg/kg/injection, schedule: Q01DX009 (oral), vehicle: Klucel (hydroxypropylcellulose) (HPC)
  T/C: 95 % of control
dose: 256.0 mg/kg/injection, schedule: Q01DX009 (sc), vehicle: Klucel (hydroxypropylcellulose) (HPC)
  T/C: 103 % of control
dose: 256.0 mg/kg/injection, schedule: Q03HX008 (ip), vehicle: Klucel (hydroxypropylcellulose) (HPC)
  survivor count: 0 of 10
dose: 256.0 mg/kg/injection, schedule: Q04DX003 (ip), vehicle: Klucel (hydroxypropylcellulose) (HPC)
  T/C: 115 % of control
dose: 256.0 mg/kg/injection, schedule: Q08DX002 (ip), vehicle: Klucel (hydroxypropylcellulose) (HPC)
  T/C: 100 % of control
dose: 400.0 mg/kg/injection, schedule: Q04DX003 (ip), vehicle: Klucel (hydroxypropylcellulose) (HPC)
  survivor count: 3 of 6
dose: 512.0 mg/kg/injection, schedule: Q01DX001 (ip), vehicle: Klucel (hydroxypropylcellulose) (HPC)
  survivor count: 0 of 10
dose: 512.0 mg/kg/injection, schedule: Q01DX001 (oral), vehicle: Klucel (hydroxypropylcellulose) (HPC)
  T/C: 100 % of control [9 of 10 alive]
dose: 512.0 mg/kg/injection, schedule: Q01DX001 (sc), vehicle: Klucel (hydroxypropylcellulose) (HPC)
  survivor count: 3 of 10
dose: 512.0 mg/kg/injection, schedule: Q01DX009 (ip), vehicle: Klucel (hydroxypropylcellulose) (HPC)
  survivor count: 0 of 10
dose: 512.0 mg/kg/injection, schedule: Q01DX009 (oral), vehicle: Klucel (hydroxypropylcellulose) (HPC)
  T/C: 95 % of control
dose: 512.0 mg/kg/injection, schedule: Q01DX009 (sc), vehicle: Klucel (hydroxypropylcellulose) (HPC)
  survivor count: 4 of 10
dose: 512.0 mg/kg/injection, schedule: Q04DX003 (ip), vehicle: Klucel (hydroxypropylcellulose) (HPC)
  survivor count: 5 of 10
dose: 512.0 mg/kg/injection, schedule: Q08DX002 (ip), vehicle: Klucel (hydroxypropylcellulose) (HPC)
  survivor count: 1 of 10
dose: 1024.0 mg/kg/injection, schedule: Q01DX001 (ip), vehicle: Klucel (hydroxypropylcellulose) (HPC)
  survivor count: 0 of 10
dose: 1024.0 mg/kg/injection, schedule: Q01DX001 (oral), vehicle: Klucel (hydroxypropylcellulose) (HPC)
  survivor count: 5 of 10
dose: 1024.0 mg/kg/injection, schedule: Q01DX001 (sc), vehicle: Klucel (hydroxypropylcellulose) (HPC)
  survivor count: 2 of 10
dose: 1024.0 mg/kg/injection, schedule: Q01DX009 (oral), vehicle: Klucel (hydroxypropylcellulose) (HPC)
  survivor count: 5 of 10
dose: 1024.0 mg/kg/injection, schedule: Q08DX002 (ip), vehicle: Klucel (hydroxypropylcellulose) (HPC)
  survivor count: 0 of 10
dose: 2048.0 mg/kg/injection, schedule: Q01DX001 (ip), vehicle: Klucel (hydroxypropylcellulose) (HPC)
  survivor count: 0 of 10
dose: 2048.0 mg/kg/injection, schedule: Q01DX001 (oral), vehicle: Klucel (hydroxypropylcellulose) (HPC)
  survivor count: 0 of 10
dose: 2048.0 mg/kg/injection, schedule: Q01DX001 (sc), vehicle: Klucel (hydroxypropylcellulose) (HPC)
  survivor count: 0 of 10

## CC(C)OP(C)(O)=S.CC(N)c1ccccc1 (configuration not stated)
dose: 3.12 mg/kg/injection, schedule: Q01DX005 (ip), vehicle: saline
  T/C: 98 % of control
dose: 6.25 mg/kg/injection, schedule: Q01DX005 (ip), vehicle: saline
  T/C: 95 % of control
dose: 12.5 mg/kg/injection, schedule: Q01DX005 (ip), vehicle: saline
  T/C: 100 % of control
dose: 50.0 mg/kg/injection, schedule: Q01DX005 (ip), vehicle: saline
  survivor count: 0 of 6
dose: 100.0 mg/kg/injection, schedule: Q01DX005 (ip), vehicle: saline
  survivor count: 0 of 6
dose: 200.0 mg/kg/injection, schedule: Q01DX005 (ip), vehicle: saline
  survivor count: 0 of 6
